These are yes or no findings as the source states them, for the method shown. In cells and extracts the contact can be indirect. Some binding calls cover weakened binding; strength is not graded here. Sequences can lack the tags named with a protein.
Target: T1, suppressor of fused homolog (SUFU) (human (endogenous in PANC-1)) (UniProt Q9UMX1)
T1 sequence: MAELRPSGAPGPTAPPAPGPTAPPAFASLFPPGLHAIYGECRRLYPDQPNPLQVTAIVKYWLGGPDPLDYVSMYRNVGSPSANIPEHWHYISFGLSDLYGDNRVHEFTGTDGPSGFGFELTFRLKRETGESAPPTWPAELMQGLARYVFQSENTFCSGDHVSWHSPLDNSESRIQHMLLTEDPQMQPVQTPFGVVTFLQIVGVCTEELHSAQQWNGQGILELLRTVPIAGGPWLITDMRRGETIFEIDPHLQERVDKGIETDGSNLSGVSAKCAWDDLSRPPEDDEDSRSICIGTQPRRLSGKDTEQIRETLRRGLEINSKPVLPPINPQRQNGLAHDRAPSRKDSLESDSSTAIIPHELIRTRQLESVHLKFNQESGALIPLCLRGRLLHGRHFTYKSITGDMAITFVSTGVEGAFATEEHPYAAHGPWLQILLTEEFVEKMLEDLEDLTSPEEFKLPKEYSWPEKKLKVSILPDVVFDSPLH
Assay: co-IP; cell lysate; 5 ug anti-Gli1 or anti-SUFU antibody per sample, Protein A/G plus agarose beads, 4°C for 4 h, immunoblot; cells untreated or treated with 10 mM lithium or 10 uM CHIR99021 for 24 h in the presence of 2 uM PYR-41

Chains of the proteins cited; added tags and fusions are not shown.
UniProt P08151: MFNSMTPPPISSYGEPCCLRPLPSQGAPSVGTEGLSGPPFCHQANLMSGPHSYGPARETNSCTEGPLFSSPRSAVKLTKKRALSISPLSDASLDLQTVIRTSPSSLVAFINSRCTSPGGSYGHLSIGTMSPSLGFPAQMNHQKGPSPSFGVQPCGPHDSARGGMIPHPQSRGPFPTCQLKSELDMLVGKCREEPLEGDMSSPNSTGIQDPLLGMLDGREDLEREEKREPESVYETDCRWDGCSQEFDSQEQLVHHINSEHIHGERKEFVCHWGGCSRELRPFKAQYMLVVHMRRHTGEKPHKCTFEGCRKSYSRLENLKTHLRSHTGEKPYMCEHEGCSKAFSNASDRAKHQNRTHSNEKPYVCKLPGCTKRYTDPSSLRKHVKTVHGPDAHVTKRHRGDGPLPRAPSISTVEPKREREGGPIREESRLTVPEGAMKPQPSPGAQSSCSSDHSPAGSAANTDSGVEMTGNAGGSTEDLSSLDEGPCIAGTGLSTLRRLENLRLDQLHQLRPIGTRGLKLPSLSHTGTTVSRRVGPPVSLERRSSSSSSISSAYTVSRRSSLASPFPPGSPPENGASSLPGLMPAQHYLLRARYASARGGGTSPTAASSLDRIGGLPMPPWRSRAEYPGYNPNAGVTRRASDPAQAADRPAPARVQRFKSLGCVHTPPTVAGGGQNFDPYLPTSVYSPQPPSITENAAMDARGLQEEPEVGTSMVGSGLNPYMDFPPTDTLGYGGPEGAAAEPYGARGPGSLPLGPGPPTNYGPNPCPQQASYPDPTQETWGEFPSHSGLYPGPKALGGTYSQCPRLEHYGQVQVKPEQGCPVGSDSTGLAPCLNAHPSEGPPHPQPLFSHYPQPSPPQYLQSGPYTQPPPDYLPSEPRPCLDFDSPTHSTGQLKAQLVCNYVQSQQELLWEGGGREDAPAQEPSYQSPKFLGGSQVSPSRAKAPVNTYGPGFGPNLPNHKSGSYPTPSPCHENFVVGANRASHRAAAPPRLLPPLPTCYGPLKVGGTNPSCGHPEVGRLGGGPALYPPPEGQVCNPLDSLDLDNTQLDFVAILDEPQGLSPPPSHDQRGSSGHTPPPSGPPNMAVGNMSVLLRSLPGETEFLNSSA

binding: binds
Substance: Gli1 (from UniProt P08151 1-1106)

Source: PMC5715333
